Test [1] has as its target GFP-tagged TNFα (UniProt P06804). Description: co-IP.
Test [2] shares this target. The test is described as follows: co-IP. This is another data set of the same source.

The chains behind the UniProt entries cited, without tags or fusion partners.
UniProt P06804: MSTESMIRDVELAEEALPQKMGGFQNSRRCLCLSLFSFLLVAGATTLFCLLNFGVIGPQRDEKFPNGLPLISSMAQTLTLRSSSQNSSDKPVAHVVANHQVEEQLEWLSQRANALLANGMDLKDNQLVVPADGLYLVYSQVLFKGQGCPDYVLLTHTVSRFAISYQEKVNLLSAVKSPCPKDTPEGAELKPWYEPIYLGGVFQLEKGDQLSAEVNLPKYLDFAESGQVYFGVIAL

Read-outs that look alike come from different tables or passages of the source. No constants are given. Whether binding was seen depends on the method and setting. In cells and extracts the contact can be indirect. Some results given as binding are weak or reduced against the parent protein; the word gives no strength.

Regarding “SorLA-ΔFN3 (from UniProt Q92673 82-2214) (receptor)”, the binding entry with GFP-tagged TNFα [1] is reported as “binds”. The same measure, in the same setting: then “SorLA-ΔCR (from UniProt Q92673 82-2214) (receptor)”, with “binds”; and “SorLA (full-length receptor) (from UniProt Q92673 82-2214)”, with “binds”. Same read-out and setting: then “SorLA-ΔEGF/β-propeller (from UniProt Q92673 82-2214) (receptor)”, with “binds”.

B1: SorLA-ΔVPS10P (domain or fragment, UniProt Q92673 754-2214)
chain: LAEENEFILYAVRKSIYRYDLASGATEQLPLTGLRAAVALDFDYEHNCLYWSDLALDVIQRLCLNGSTGQEVIINSGLETVEALAFEPLSQLLYWVDAGFKKIEVANPDGDFRLTIVNSSVLDRPRALVLVPQEGVMFWTDWGDLKPGIYRSNMDGSAAYHLVSEDVKWPNGISVDDQWIYWTDAYLECIERITFSGQQRSVILDNLPHPYAIAVFKNEIYWDDWSQLSIFRASKYSGSQMEILANQLTGLMDMKIFYKGKNTGSNACVPRPCSLLCLPKANNSRSCRCPEDVSSSVLPSGDLMCDCPQGYQLKNNTCVKQENTCLRNQYRCSNGNCINSIWWCDFDNDCGDMSDERNCPTTICDLDTQFRCQESGTCIPLSYKCDLEDDCGDNSDESHCEMHQCRSDEYNCSSGMCIRSSWVCDGDNDCRDWSDEANCTAIYHTCEASNFQCRNGHCIPQRWACDGDTDCQDGSDEDPVNCEKKCNGFRCPNGTCIPSSKHCDGLRDCSDGSDEQHCEPLCTHFMDFVCKNRQQCLFHSMVCDGIIQCRDGSDEDAAFAGCSQDPEFHKVCDEFGFQCQNGVCISLIWKCDGMDDCGDYSDEANCENPTEAPNCSRYFQFRCENGHCIPNRWKCDRENDCGDWSDEKDCGDSHILPFSTPGPSTCLPNYYRCSSGTCVMDTWVCDGYRDCADGSDEEACPLLANVTAASTPTQLGRCDRFEFECHQPKTCIPNWKRCDGHQDCQDGRDEANCPTHSTLTCMSREFQCEDGEACIVLSERCDGFLDCSDESDEKACSDELTVYKVQNLQWTADFSGDVTLTWMRPKKMPSASCVYNVYYRVVGESIWKTLETHSNKTNTVLKVLKPDTTYQVKVQVQCLSKAHNTNDFVTLRTPEGLPDAPRNLQLSLPREAEGVIVGHWAPPIHTHGLIREYIVEYSRSGSKMWASQRAASNFTEIKNLLVNTLYTVRVAAVTSRGIGNWSDSKSITTIKGKVIPPPDIHIDSYGENYLSFTLTMESDIKVNGYVVNLFWAFDTHKQERRTLNFRGSILSHKVGNLTAHTSYEISAWAKTDLGDSPLAFEHVMTRGVRPPAPSLKAKAINQTAVECTWTGPRNVVYGIFYATSFLDLYRNPKSLTTSLHNKTVIVSKDEQYLFLVRVVVPYQGPSSDYVVVKMIPDSRLPPRHLHVVHTGKTSVVIKWESPYDSPDQDLLYAVAVKDLIRKTDRSYKVKSRNSTVEYTLNKLEPGGKYHIIVQLGNMSKDSSIKITTVSLSAPDALKIITENDHVLLFWKSLALKEKHFNESRGYEIHMFDSAMNITAYLGNTTDNFFKISNLKMGHNYTFTVQARCLFGNQICGEPAILLYDELGSGADASATQAARSTDVAAVVVPILFLILLSLGVGFAILYTKHRRLQSSFTAFANSHYSSRLGSAIFSSGDDLGEDDEDAPMITGFSDDVPMVIA
As for B1, in the test with GFP-tagged TNFα [2], the binding entry was “binds”.

The record behind these values is article doi:10.1101/2023.04.12.536447.
